Reference: PubChem BioAssay AID1259405 (NCATS, 2018)

Purpose: 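Knock-downs that lift recombinant protein yield in hamster ovary cells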 (primary screen)
Cell system: Chinese hamster CHO-K1 ovary cells with stable secreted eGFP expression
Reagent: single siRNA against mouse genes, 0.8 pmol siRNA per well (2 µl of 400 nM stock)
Time to read-out: 3 days
Read-out: 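Per-well intracellular GFP measured by laser scanning cytometry, plus viability from ATP luminescence, each relative to plate median of non-targeting control wells, in %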
Direction: GFP, % of control: higher = more GFP per well, higher productivity; viability (ATP), % of control: higher = more viable cells (more ATP)
Call rule: 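Called active when intracellular GFP, relative to negative control, is at or above 120%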
Shown is an unselected part of about 50,000 deposited reagents. In the full data, about 4,000 (8%) are marked active. 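Mouse siRNA library applied to hamster cells; one well for each siRNA.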 Entries without a mark were called inactive. The numbers tell different reagents against one gene apart.

target	reagent no.	GFP, % of control	viability (ATP), % of control
Abi3bp	1	76.3	92.4
Abi3bp	2	87.5	69.4
Abi3bp	3	88.9	60.6
Hsd17b10	1	58.6	53.6
Hsd17b10	2	86	107
Hsd17b10	3	46.5	23
Klra6	1	69.1	68.4
Klra6	2	99	65.2
Klra6	3	112	74.5
Or6c213	1	73.8	68.1
Or6c213	2	60.8	63
Or6c213	3	57.5	97.1
Dmrta1	1	35	50.5
Dmrta1	2	71	80.8
Dmrta1	3	53.1	38.2
Rbm48	1	61.7	63.1
Rbm48	2	98.7	96.1
Rbm48	3	137 (active)	129
Tnnt3	1	76.2	63.5
Tnnt3	2	66.3	57.6
Tnnt3	3	69.9	77.8
Myt1l	1	42.3	56.9
Myt1l	2	72.5	94.6
Myt1l	3	60.5	48.9
Adamdec1	1	76.3	72.9
Adamdec1	2	49.3	36.6
Adamdec1	3	67.8	90.2
Slc10a7	1	143 (active)	88.9
Slc10a7	2	79.7	89.4
Slc10a7	3	79.9	62.9
Apbb1	1	67.7	62.6
Apbb1	2	103	91.3
Apbb1	3	62.4	58.5
Klra1	1	70	79.2
Klra1	2	83.3	84.2
Klra1	3	63.7	67.9
4833439L19Rik	1	61.4	74.6
4833439L19Rik	2	80.9	72.4
4833439L19Rik	3	76.6	69.9
Dbpht2	1	78.2	72.9
Dbpht2	2	108	87.2
Dbpht2	3	55.5	62.3
Smc6	1	35.8	34.7
Smc6	2	80.2	87.2
Smc6	3	48.5	59
Ggact	1	48.4	76
Ggact	2	54.3	53.8
Ggact	3	122 (active)	115
Krt4	1	139 (active)	115
Krt4	2	50.4	50.8
B4galnt3	1	109	85.7
B4galnt3	2	78.5	55.9
B4galnt3	3	117	118
H2al2a	1	95.4	102
H2al2a	2	88.9	81
H2al2a	3	71.6	68.4
Best3	1	77	86.9
Best3	2	131 (active)	77.1
Best3	3	80.8	78.2
Ptk6	1	50.3	57.5
Mepe	1	53	75.7
Mepe	2	105	74.4
Mepe	3	83.3	72.3
Trim31	1	71.7	81.7
Trim31	2	122 (active)	120
Trim31	3	78.9	116
Fbn2	1	93.3	120
Fbn2	2	29.9	62.1
Stat4	1	87.9	96.3
Stat4	2	55.9	85.9
Stat4	3	54.5	75
Pdcd2l	1	128 (active)	95.7
Pdcd2l	2	126 (active)	110
Pdcd2l	3	82.1	90
AA986860	1	63.4	53.4
AA986860	2	45.7	66.3
AA986860	3	72	90.5
Retreg2	1	51.8	59.5
Retreg2	2	82.5	89.5
Retreg2	3	114	146
Psmb6	1	62.9	60.1
Psmb6	2	36.4	28.6
Psmb6	3	82.5	76
Dclk1	1	53.5	47.8
Dclk1	2	76.6	83.7
Hdac11	1	79.5	78.5
Hdac11	2	81.2	54.3
Slc12a5	1	88.7	62.4
Slc12a5	2	115	84.1
Slc12a5	3	129 (active)	111
Bmp3	1	65.9	44.8
Bmp3	2	56.9	60.4
Bmp3	3	65.9	49.9
Igf2	1	44.4	46.3
Igf2	2	64.3	65.9
Igf2	3	121 (active)	65.9
Spata17	1	36.7	88.4
Spata17	2	91.7	78.5
Spata17	3	72.2	80.8
Cnga1	1	59.3	81.7
Cnga1	2	88.7	101
Cnga1	3	61	64.5
Zswim9	1	62.2	44.4
Zswim9	2	110	69.6
Zswim9	3	78.9	74.4
Nfyb	1	88.4	50.9
Nfyb	2	88.3	97.2
Nfyb	3	68.9	92.1

In a second layout: entries from further up.
{"target":"Dmrta1","reagent no.":1,"GFP, % of control":35,"viability (ATP), % of control":50.5}
{"target":"Dmrta1","reagent no.":2,"GFP, % of control":71,"viability (ATP), % of control":80.8}
{"target":"Dmrta1","reagent no.":3,"GFP, % of control":53.1,"viability (ATP), % of control":38.2}
{"target":"Rbm48","reagent no.":1,"GFP, % of control":61.7,"viability (ATP), % of control":63.1}
{"target":"Rbm48","reagent no.":2,"GFP, % of control":98.7,"viability (ATP), % of control":96.1}
{"target":"Rbm48","reagent no.":3,"GFP, % of control":"137 (active)","viability (ATP), % of control":129}
